Source: publication doi:10.1101/265785

biological target: Hydra Sp5, HA-tagged (HySp5) (Hydra vulgaris); assay: co-IP

Row | binding | Substance
1 | binds | endogenous TCF-1 (HEK293T) (from UniProt P36402 1-384)
2 | binds | human TCF-1 (huTCF-1) (from UniProt P36402 1-384)

Row | Substance | binding
3 | constitutively active human β-catenin (pFLAG-CMV-human-β-cateninΔ45) (from UniProt P35222 1-781) | binds

No constants are given. Whether binding was seen depends on the method and setting. In cells and extracts the contact can be indirect. Binding can be weak; no strength is given.
